{
  "source": "patent US20020064828A1",
  "binders": {"B1": {"name": "C-myc calmyrin (calmyrin with in-frame COOH-terminal myc epitope) (protein, not shown: small tags and cut ends)", "chain": "GGSGSRLSKELLAEYQDLTFLTKQEILLAHRRFCELLPQEQRTVESSLRAQVPFEQILSLPELKANPFKERICRVFSTSPAKDSLSFEDFLDLLSVFSDTATPDIKSHYAFRIFDFDDDGTLNREDLSRLVNCLTGEGEDTRLSASEMKQLIDNILEESDIDRDGTINLSEFQHVISRSPDFASSFKIVL", "modifications": "myristoylated (3H-myristic acid label)"}},
  "target": "full-length human presenilin 2 (PS2) expressed in HeLa cells (human) (UniProt P49810)",
  "test": "coimmunoprecipitation with rabbit anti-PS2, 3H-myristic acid fluorography",
  "note": "No constants are given. Whether binding was seen depends on the method and setting. In cells and extracts the contact can be indirect. Some results given as binding are weak or reduced against the parent protein; the word gives no strength. Sequences can lack the tags named with a protein.",
  "data": [
    {"binder": "B1", "values": [
      {"measurement": "binding", "result": "binds"}
    ]}
  ]
}
